This note sets out measurements from paper PMC6814716.

Chains of the proteins cited; added tags and fusions are not shown.
UniProt O43474: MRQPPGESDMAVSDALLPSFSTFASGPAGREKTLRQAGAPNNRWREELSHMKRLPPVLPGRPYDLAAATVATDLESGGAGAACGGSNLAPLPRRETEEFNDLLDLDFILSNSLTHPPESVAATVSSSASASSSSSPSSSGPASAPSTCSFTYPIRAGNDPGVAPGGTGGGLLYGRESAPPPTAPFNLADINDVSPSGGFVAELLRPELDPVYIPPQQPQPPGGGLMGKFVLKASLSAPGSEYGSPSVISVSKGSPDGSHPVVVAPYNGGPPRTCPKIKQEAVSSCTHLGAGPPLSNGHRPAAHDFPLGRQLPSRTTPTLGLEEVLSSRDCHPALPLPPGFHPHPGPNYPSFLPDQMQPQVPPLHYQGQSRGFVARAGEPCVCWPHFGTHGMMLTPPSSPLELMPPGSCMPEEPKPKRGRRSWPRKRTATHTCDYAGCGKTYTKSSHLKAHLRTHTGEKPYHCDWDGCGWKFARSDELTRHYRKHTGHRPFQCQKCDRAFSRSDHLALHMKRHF
UniProt Q92841: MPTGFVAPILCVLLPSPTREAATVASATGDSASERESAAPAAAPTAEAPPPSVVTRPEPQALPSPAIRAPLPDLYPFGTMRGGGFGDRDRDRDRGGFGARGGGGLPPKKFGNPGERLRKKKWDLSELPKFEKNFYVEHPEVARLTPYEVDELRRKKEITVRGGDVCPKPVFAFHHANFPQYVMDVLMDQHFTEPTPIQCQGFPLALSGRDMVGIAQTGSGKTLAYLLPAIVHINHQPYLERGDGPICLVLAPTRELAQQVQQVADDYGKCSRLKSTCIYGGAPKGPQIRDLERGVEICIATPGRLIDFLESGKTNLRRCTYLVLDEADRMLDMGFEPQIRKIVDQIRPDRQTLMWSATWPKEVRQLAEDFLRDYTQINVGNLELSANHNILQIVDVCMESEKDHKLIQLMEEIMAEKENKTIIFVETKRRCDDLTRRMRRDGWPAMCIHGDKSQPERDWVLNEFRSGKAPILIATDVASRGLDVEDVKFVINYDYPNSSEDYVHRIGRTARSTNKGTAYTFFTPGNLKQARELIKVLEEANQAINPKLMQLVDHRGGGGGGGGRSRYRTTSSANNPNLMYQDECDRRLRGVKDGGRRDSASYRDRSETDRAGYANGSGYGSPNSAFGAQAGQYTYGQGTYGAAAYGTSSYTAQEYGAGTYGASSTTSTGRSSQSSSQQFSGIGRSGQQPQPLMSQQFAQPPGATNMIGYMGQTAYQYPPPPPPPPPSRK

Test [1] concerns the target HA-Klf4 (Krüppel-like factor 4), wild type (UniProt O43474). Put plainly: co-IP; HEK293T and SMMC7721 cells transfected with Flag-DDX17 or HA-Klf4 plasmid for 48 h, lysed; Flag-M2/HA beads; washed four times with cell lysis buffer; Western blotting (mutant Klf4 in HEK293T only).
In a further test the target is GST-Klf4 fusion protein (UniProt O43474). Put plainly: pull-down; purified GST-Klf4 on GST beads incubated with lysates of DDX17-transfected HEK293T cells overnight at 4 °C; washed four times; Western blotting; only the target purified. On the technique in general: A western blot detects proteins with antibodies after separation by electrophoresis.
Test [2] concerns the target Flag-DDX17 (DEAD box RNA helicase 17) (UniProt Q92841). The experiment in a line: co-IP; HEK293T and SMMC7721 cells transfected with Flag-DDX17 or HA-Klf4 plasmid for 48 h, lysed; Flag-M2/HA beads; washed four times with cell lysis buffer; Western blotting (mutant Klf4 in HEK293T only).

Results are given in words; binding and its absence hold for the method and conditions named. In cells and extracts the contact can be indirect. Some entries that bind do so weakly or less than the wild type.

In the case of “Flag-DDX17 (DEAD box RNA helicase 17) (from UniProt Q92841 1-729)”, the binding entry (in test [1]; with GST-Klf4 fusion protein) was “binds” throughout.

Turning to “HA-Klf4 (Krüppel-like factor 4), wild type (from UniProt O43474 1-513)”, the binding entry in test [2] is “binds”.
